In article doi:10.1101/2024.12.16.628704:
No constants are given. Whether binding was seen depends on the method and setting. Binding can be weak; no strength is given.

Protein sequences, listed by entry. Tags and fused reporters are not part of them. Lines headed by an entry give the natural chain unless they say otherwise; changes in a name come on top. Residues count along the entry.
UniProt Q9NNX6: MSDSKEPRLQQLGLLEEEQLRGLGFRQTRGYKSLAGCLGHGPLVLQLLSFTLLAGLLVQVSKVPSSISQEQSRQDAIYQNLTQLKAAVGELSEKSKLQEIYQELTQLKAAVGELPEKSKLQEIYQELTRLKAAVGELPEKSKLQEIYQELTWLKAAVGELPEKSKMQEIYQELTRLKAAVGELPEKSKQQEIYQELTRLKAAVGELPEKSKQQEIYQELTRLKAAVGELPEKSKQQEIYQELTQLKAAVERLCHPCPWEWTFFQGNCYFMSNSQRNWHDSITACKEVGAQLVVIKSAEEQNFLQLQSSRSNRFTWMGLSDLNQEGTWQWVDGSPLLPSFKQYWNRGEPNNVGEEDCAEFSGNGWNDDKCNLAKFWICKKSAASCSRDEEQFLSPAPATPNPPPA
UniProt P31994, residues 43-217: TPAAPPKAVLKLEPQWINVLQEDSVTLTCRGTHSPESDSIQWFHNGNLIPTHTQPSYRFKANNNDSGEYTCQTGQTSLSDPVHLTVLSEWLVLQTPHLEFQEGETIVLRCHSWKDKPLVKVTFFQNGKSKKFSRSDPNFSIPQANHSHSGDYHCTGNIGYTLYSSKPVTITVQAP

Biological target: DC-SIGN covalently coupled to an SPR chip (UniProt Q9NNX6)
Test: SPR

binding: binds
Substance: recombinant FcγRIIB ectodomain (from UniProt P31994 43-217) (domain or fragment)
